These are literature values, as cited in patent US8466203B2, “Method of stabilizing human eye tissue by reaction with nitrite and related agents such as nitro compounds” (priority 2006, dated 2013).

The test system of this data set is corneal endothelial cell. The following applies: 3 hrs exposure, rabbit organ culture, electron microscopy, Green 1977; cited from earlier work.

`CCCCCCCCCCCCCCCC[n+]1ccccc1` [Cetylpyridinium chloride]: the Toxic concentration is 10 µM.
